System: MCF7 cells
Assay: MTT cytotoxicity in doxorubicin sensitive MCF7 cells
Format: cell-based
Conditions: Homo sapiens, MCF7, 48 hrs exposure, without verapamil
Procedure: In some embodiments, monolayer doxorubicin sensitive (MCF7) and resistant (MCF7/ADR) cells were then exposed to either doxorubicin or TAT-Dox conjugates at various concentrations (up to 100 μM) for 48 hrs in the presence or absence of 10 μM verapamil. Cell viability was measured by MTT assay. […] Verapamil, a P-glycoprotein inhibitor, was able to restore most of the cytotoxic activities of free doxorubicin.

## COc1cccc2c1C(=O)c1c(O)c3c(c(O)c1C2=O)C[C@@](O)(C(=O)CO)C[C@@H]3O[C@H]1C[C@H](N)[C@H](O)[C@H](C)O1 [Dox, doxorubicin]
  IC50: 250 nM

Reference: patent US7329638B2, “Drug delivery compositions” (priority 2003, dated 2008)
